Reference: PMC11260166
No constants are given. Whether binding was seen depends on the method and setting. In cells and extracts the contact can be indirect. Some results given as binding are weak or reduced against the parent protein; the word gives no strength. Sequences can lack the tags named with a protein.

Molecular target: EGFP-FAM110A-WT (human) (UniProt Q9BQ89)
Experiment: pull-down; EGFP-FAM110A pulled down FAM110A-FLAG; no figure or method pointed to

binding: binds
B1: EGFP-FAM110A-WT (protein, UniProt Q9BQ89 1-295)
chain: MPVHTLSPGAPSAPALPCRLRTRVPGYLLRGPADGGARKPSAVERLEADKAKYVKSLHVANTRQEPVQPLLSKQPLFSPETRRTVLTPSRRALPGPCRRPQLDLDILSSLIDLCDSPVSPAEASRTPGRAEGAGRPPPATPPRPPPSTSAVRRVDVRPLPASPARPCPSPGPAAASSPARPPGLQRSKSDLSERFSRAAADLERFFNFCGLDPEEARGLGVAHLARASSDIVSLAGPSAGPGSSEGGCSRRSSVTVEERARERVPYGVSVVERNARVIKWLYGLRQARESPAAEG
